{
  "source": "patent US5703069A",
  "about": "“Method for inhibiting and controlling viral growth” (Warner-Lambert Company, priority 1996, dated 1997)",
  "origin": "cited, not measured here",
  "system": "TPA-mediated CD4 down regulation and HIV expression",
  "conditions": "HIV-infected cells; Hamamoto et al. 1989; cited from earlier work",
  "data": [
    {"smiles": "CN[C@@H]1C[C@H]2O[C@@](C)([C@@H]1OC)n1c3ccccc3c3c4c(c5c6ccccc6n2c5c31)C(=O)NC4", "note": "[Staurosporine]", "values": [
      {"measurement": "inhibition of TPA-mediated CD4 down regulation and augmentation of HIV expression (in words)", "result": "effective TPA inhibitor for both of these actions"}
    ]}
  ]
}
